Experimental data taken from publication PMC4269892.
These are yes or no findings as the source states them, for the method shown. Binding seen in cells or lysates may run through a third protein. Some entries that bind do so weakly or less than the wild type.

Protein sequences, listed by entry. Tags and fused reporters are not part of them.
UniProt Q9BSK0: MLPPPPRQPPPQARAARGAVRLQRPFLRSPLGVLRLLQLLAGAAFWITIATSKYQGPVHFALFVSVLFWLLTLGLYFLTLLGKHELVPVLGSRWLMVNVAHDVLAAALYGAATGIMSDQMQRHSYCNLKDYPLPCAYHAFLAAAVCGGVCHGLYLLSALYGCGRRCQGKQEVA
UniProt Q96Q15: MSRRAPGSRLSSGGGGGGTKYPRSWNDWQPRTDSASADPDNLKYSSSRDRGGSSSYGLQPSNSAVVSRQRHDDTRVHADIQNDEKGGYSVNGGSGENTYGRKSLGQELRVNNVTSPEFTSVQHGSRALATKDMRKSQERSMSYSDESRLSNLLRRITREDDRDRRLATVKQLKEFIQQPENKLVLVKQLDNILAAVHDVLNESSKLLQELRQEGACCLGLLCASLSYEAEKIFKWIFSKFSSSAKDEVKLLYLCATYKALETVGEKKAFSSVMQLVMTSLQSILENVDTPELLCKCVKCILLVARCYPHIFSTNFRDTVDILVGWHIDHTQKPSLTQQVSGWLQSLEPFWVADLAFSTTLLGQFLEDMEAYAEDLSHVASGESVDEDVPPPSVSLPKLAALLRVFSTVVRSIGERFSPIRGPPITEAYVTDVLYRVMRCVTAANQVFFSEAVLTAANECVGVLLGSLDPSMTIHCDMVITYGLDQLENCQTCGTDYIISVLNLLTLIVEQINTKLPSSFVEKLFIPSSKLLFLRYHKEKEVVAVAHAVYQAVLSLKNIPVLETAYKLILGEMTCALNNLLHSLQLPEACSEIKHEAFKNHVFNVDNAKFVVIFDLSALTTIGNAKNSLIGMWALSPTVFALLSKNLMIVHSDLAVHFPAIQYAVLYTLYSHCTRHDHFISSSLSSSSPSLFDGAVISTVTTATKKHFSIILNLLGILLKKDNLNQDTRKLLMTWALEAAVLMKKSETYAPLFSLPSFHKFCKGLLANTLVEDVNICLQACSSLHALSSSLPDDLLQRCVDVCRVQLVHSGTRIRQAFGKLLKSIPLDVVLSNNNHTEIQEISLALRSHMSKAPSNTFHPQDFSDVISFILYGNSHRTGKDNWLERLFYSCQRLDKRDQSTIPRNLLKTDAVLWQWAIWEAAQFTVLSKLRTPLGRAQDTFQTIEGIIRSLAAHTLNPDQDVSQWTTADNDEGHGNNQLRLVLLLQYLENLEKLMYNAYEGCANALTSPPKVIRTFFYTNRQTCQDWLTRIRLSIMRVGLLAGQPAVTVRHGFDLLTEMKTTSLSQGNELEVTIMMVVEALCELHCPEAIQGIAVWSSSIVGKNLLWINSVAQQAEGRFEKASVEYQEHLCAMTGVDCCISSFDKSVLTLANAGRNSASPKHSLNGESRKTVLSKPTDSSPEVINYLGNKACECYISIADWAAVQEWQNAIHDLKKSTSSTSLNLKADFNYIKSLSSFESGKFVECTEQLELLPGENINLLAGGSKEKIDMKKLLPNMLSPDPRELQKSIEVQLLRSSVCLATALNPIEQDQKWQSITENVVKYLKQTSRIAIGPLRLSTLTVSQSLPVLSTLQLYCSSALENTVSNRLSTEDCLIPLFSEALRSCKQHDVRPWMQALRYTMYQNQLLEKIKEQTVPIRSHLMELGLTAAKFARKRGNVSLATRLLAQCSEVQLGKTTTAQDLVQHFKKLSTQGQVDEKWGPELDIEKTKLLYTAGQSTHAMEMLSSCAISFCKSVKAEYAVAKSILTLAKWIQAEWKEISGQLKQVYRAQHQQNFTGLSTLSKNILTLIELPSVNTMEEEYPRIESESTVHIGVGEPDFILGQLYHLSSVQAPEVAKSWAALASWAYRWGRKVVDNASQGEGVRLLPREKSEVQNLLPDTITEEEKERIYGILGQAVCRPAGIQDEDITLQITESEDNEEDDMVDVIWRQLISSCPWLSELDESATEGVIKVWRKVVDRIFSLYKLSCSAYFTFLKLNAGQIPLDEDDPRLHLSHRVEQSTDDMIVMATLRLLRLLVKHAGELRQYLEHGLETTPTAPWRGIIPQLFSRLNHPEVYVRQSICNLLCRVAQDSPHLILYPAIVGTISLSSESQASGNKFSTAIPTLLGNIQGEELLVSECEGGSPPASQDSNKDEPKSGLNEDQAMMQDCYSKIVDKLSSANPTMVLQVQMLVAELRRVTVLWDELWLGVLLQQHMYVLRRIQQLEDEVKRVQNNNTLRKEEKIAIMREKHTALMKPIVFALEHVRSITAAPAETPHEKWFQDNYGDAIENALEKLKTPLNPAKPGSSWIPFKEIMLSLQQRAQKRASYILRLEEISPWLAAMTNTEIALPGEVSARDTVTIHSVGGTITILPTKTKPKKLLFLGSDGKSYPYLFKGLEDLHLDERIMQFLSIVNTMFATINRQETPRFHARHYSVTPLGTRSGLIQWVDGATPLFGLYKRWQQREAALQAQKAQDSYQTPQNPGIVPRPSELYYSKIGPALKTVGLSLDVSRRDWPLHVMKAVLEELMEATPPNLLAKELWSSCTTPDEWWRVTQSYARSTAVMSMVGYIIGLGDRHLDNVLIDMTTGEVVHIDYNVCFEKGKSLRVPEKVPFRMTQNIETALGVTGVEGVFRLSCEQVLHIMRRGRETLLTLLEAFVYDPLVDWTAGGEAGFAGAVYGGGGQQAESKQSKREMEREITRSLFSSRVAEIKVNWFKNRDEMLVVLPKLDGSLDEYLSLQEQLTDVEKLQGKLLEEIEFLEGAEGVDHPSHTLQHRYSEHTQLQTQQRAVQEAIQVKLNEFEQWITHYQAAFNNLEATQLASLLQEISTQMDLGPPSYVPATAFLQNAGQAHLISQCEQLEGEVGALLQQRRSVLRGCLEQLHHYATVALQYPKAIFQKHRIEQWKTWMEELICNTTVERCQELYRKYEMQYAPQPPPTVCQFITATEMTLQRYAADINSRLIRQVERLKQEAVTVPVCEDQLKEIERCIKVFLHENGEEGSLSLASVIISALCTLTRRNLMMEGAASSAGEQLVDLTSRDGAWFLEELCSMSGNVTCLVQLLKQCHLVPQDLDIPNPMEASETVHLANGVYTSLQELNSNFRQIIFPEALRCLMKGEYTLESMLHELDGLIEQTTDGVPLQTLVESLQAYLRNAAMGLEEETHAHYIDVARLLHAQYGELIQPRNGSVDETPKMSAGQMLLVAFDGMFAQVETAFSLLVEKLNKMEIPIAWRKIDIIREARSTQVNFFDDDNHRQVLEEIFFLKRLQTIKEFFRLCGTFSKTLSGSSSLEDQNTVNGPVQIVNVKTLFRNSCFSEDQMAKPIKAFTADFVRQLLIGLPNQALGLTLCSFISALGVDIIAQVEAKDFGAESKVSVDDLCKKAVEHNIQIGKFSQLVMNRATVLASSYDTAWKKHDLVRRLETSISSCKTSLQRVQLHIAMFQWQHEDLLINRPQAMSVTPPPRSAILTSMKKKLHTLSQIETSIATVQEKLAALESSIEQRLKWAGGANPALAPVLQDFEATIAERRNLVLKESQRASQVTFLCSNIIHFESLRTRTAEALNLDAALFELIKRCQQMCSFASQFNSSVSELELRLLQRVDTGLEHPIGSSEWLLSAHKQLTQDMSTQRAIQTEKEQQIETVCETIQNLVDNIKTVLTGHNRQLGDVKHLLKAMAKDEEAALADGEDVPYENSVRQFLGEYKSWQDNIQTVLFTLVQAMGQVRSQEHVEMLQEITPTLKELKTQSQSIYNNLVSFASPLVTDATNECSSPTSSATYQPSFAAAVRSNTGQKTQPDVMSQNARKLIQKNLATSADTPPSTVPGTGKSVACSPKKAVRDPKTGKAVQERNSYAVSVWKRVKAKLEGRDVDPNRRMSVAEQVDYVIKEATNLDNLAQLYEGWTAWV

Molecular target: MARVELD1 (MARVEL domain containing 1) (human (endogenous in NCI-H292 and NCI-H520)) (UniProt Q9BSK0)
Test: co-IP; whole cell lysates of NCI-H292 and NCI-H520 (1 x 10^7 cells, RIPA lysis buffer with protease inhibitors); MARVELD1 antibody (Abcam) at 4°C for 12 h, Protein A Sepharose CL-4B beads 2 h, washed 3 times with RIPA buffer; control rabbit IgG; western blotting

- binding: binds
Substance: SMG1 (from UniProt Q96Q15 1-3661) (enzyme)
